Reference: US20140363434A1 (COMPLIX, published 2014)
Numbering of substitutions follows the chain as printed. Results are given in words; binding and its absence hold for the method and conditions named. Some results given as binding are weak or reduced against the parent protein; the word gives no strength.

Chains of the proteins cited; added tags and fusions are not shown.
UniProt Q07820: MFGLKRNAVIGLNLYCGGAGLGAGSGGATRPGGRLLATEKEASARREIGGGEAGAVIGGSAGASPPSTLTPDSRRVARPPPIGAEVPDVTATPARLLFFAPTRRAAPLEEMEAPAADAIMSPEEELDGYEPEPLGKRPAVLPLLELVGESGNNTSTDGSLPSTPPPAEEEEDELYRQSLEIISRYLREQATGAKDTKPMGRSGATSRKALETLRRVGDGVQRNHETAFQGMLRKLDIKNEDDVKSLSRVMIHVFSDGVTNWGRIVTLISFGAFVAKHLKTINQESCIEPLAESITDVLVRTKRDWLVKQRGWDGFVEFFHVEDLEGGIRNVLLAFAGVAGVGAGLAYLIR

Assays:
[1] = biological target: MCL-1 in MCL-1 transfected HEK cell lysate (Santa Cruz) (UniProt Q07820); assay: dot blot: MCL-1 transfected HEK cell lysate spotted on nitrocellulose, incubated with Alphabody, detected with anti-His antibody-HRP
[2] = biological target: MCL-1 in MCL-1 transfected HEK cell lysate (Santa Cruz) (UniProt Q07820); assay: dot blot on spotted MCL-1 transfected HEK cell lysate; 1, 5 and 10 microM Alphabody; anti-His-HRP detection
[3] = biological target: MCL-1 in MCL-1 transfected HEK cell lysate (Santa Cruz) (UniProt Q07820); assay: dot blot on spotted MCL-1 transfected HEK cell lysate

Measured: binding

B1: KLPVM-MCL1-AB1 (designed binder)
chain: KLPVMMSIEEIQKQIAAIQKQIAAIEKQIYAMTGGSGGGSGGGSGGGSGMSIEEITKQIAAIQLRIVGDQVQIYAMTGGSGGGSGGGSGGGSGGSIEEIQKSIAAIQKEIAAIQKQIYAMTP
binds: all assays above

B2: VPTLK-MCL1-AB1 (designed binder)
chain: B1 chain with K1V, L2P, P3T, V4L, M5K
binds: all assays above
